According to article PMC10113545, “OsWRKY76 positively regulates drought stress via OsbHLH148-mediated jasmonate signaling in rice”:
No constants are given. Whether binding was seen depends on the method and setting. For some of these results: Binding seen in cells or lysates may run through a third protein. Some results given as binding are weak or reduced against the parent protein; the word gives no strength. Sequences can lack the tags named with a protein.

T1: BD-OsWRKY76 (rice (Oryza sativa)) (UniProt Q6EPZ2)
T1 sequence: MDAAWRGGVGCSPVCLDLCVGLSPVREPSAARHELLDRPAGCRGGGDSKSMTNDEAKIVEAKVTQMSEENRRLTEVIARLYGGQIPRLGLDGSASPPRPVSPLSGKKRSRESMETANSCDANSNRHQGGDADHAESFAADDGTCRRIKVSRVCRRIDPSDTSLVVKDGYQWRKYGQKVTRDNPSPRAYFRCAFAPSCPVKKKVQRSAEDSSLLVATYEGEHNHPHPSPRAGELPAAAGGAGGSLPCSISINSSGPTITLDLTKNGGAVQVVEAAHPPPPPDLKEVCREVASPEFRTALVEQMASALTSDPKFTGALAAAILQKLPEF

T2: OsWRKY76-nYFP (rice (Oryza sativa)) (UniProt Q6EPZ2)
T2 sequence: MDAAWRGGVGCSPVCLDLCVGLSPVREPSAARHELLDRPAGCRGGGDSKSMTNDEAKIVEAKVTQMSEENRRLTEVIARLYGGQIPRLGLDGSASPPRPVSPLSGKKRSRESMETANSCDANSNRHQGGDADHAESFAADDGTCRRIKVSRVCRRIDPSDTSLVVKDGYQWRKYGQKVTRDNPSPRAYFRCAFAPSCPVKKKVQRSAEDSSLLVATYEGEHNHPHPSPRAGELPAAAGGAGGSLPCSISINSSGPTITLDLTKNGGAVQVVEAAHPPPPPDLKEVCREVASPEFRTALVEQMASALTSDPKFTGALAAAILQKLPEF


Columns and labels:
[1] = molecular target: T1, BD-OsWRKY76 (rice (Oryza sativa)); experiment: two-hybrid; yeast strain Y2HGold; bait in pbridge (BD), prey in pGADT7 (AD); growth on SD/-Trp-Leu and SD/-Trp-Leu-His dropout plates
[2] = molecular target: T2, OsWRKY76-nYFP (rice (Oryza sativa)); experiment: split reporter; BiFC with nYFP and cYFP fusions transformed into Arabidopsis protoplasts (the results say rice protoplasts); fluorescence microscopy

Row | Binder | binding [1] | binding [2]
1 | AD-OsJAZ7 (protein, UniProt Q8H395 1-244) MAASARPVGVGGERATSFAMACSLLSRYVRQNGAAAAELGLGIRGEGEAPRAAPATMSLLPGEAERKKETMELFPQSAGFGQQDAITADSAADAREQEPEKRQLTIFYGGKVLVFNDFPADKAKGLMQLASKGSPVAPQNAAAPAPAAVTDNTKAPMAVPAPVSSLPTAQADAQKPARANASDMPIARKASLHRFLEKRKDRLNAKTPYQASPSDATPVKKEPESQPWLGLGPNAVVKPIERGQ | no binding | –
2 | AD-OsJAZ8 (protein, UniProt Q69P94 1-232) MAGRATATATAAGKDRSSFAVTCSLLSQFLKEKKGGGGGLQGLGLGLRPAPAAPPAAGAGGAFRPPPTTMNLLSGLDAPAVEVEPNTAETAADELPLIKAPADQQSDESASEAAGEKAQQLTIFYGGKVVVFENFPSTKVKDLLQIVSTGDGVDKNTGTAATQSLPRPAHNSLPDLPIARRNSLHRFLEKRKGRMNANAPYQANCTAAPSKQANGDKSWLGFGQEMTIKQEI | binds | –

Second part, the binder after the results:

Row | binding [1] | binding [2] | Binder
3 | binds | – | AD-OsJAZ12 (protein, UniProt Q7XEZ1 1-171) MAAAGSSSRFAVTCGLLSQYMRERQQPQPPVTVLEAVAEEEEEEDARTMQLFPPRAAAADGVATPSAGTAPLTIFYDGRMVVVDDVPVEKAAELMRLAGSACSPPQPAHAAALPEMPIARKASLQRFLQKRKHRITTTSEPYKKAAVASPAPEKSFAVAPVKDEPATWLGL
4 | – | binds | cYFP-OsJAZ12 (protein, UniProt Q7XEZ1 1-171) MAAAGSSSRFAVTCGLLSQYMRERQQPQPPVTVLEAVAEEEEEEDARTMQLFPPRAAAADGVATPSAGTAPLTIFYDGRMVVVDDVPVEKAAELMRLAGSACSPPQPAHAAALPEMPIARKASLQRFLQKRKHRITTTSEPYKKAAVASPAPEKSFAVAPVKDEPATWLGL
